Test results from patent publication US20090061031A1, “Compositions and methods for treating obesity, obesity related disorders and for inhibiting the infectivity of human immunodeficiency virus” (priority 2006, published 2009).
For at least one compound, name, drawing or mass did not settle the structure.

How the values were obtained:
[1] = target: HIV-1 gp41 fusion core 6HB (N36 + C34) (Human immunodeficiency virus type 1 group M subtype B, UniProt P04578); experiment: Fusion core 6HB formation by native PAGE
[2] = target: HIV-1 integrase (Human immunodeficiency virus type 1 group M subtype B, UniProt P12497, C1427S/F1332H); experiment: HIV-1 integrase 3′-processing assay; assay type: biochemical

Compound | concentration of total inhibition of 6HB formation [1] | concentration of total inhibition of 3′-processing [2]
C/C=C1/[C@H](O[C@@H]2O[C@H](CO)[C@@H](O)[C@H](O)[C@H]2O)OC=C(C(=O)OC)[C@H]1CC(=O)OCCc1ccc(O)c(O)c1 (single isomer, unassigned) [Ole, oleuropein] | 100 nM | 100 nM
OCCc1ccc(O)c(O)c1 [HT, hydroxytyrosol] | 100 nM | 100 nM
